According to PubChem BioAssay AID2662 (National Center for Advancing Translational Sciences (NCATS), 2010):
The campaign covered roughly 290,000 compounds. About 110 (0.038%) were called active. Inconclusive means that the source gave no clear call. Such entries were picked first, then a sample of the others. Calls come from the whole dose curve; as a rule, active = well fitted inhibition curve with a large enough effect in the polarisation, with a control signal flat (not every such curve was filed as active); inconclusive = small, poorly fitted or top-dose-only effect, or effect the other way, or a change in a side signal; inactive = no such curve, though single readings can be large or run the other way; the % refers to the polarisation. A potency beside an inconclusive call is a rough fit, not a confirmed value. A note “side channel” means that the fit belongs to a control or component signal, not to the main read-out.

Amino acid sequences for entries named in this document (tags omitted).
UniProt Q03164, whole entry, looked up: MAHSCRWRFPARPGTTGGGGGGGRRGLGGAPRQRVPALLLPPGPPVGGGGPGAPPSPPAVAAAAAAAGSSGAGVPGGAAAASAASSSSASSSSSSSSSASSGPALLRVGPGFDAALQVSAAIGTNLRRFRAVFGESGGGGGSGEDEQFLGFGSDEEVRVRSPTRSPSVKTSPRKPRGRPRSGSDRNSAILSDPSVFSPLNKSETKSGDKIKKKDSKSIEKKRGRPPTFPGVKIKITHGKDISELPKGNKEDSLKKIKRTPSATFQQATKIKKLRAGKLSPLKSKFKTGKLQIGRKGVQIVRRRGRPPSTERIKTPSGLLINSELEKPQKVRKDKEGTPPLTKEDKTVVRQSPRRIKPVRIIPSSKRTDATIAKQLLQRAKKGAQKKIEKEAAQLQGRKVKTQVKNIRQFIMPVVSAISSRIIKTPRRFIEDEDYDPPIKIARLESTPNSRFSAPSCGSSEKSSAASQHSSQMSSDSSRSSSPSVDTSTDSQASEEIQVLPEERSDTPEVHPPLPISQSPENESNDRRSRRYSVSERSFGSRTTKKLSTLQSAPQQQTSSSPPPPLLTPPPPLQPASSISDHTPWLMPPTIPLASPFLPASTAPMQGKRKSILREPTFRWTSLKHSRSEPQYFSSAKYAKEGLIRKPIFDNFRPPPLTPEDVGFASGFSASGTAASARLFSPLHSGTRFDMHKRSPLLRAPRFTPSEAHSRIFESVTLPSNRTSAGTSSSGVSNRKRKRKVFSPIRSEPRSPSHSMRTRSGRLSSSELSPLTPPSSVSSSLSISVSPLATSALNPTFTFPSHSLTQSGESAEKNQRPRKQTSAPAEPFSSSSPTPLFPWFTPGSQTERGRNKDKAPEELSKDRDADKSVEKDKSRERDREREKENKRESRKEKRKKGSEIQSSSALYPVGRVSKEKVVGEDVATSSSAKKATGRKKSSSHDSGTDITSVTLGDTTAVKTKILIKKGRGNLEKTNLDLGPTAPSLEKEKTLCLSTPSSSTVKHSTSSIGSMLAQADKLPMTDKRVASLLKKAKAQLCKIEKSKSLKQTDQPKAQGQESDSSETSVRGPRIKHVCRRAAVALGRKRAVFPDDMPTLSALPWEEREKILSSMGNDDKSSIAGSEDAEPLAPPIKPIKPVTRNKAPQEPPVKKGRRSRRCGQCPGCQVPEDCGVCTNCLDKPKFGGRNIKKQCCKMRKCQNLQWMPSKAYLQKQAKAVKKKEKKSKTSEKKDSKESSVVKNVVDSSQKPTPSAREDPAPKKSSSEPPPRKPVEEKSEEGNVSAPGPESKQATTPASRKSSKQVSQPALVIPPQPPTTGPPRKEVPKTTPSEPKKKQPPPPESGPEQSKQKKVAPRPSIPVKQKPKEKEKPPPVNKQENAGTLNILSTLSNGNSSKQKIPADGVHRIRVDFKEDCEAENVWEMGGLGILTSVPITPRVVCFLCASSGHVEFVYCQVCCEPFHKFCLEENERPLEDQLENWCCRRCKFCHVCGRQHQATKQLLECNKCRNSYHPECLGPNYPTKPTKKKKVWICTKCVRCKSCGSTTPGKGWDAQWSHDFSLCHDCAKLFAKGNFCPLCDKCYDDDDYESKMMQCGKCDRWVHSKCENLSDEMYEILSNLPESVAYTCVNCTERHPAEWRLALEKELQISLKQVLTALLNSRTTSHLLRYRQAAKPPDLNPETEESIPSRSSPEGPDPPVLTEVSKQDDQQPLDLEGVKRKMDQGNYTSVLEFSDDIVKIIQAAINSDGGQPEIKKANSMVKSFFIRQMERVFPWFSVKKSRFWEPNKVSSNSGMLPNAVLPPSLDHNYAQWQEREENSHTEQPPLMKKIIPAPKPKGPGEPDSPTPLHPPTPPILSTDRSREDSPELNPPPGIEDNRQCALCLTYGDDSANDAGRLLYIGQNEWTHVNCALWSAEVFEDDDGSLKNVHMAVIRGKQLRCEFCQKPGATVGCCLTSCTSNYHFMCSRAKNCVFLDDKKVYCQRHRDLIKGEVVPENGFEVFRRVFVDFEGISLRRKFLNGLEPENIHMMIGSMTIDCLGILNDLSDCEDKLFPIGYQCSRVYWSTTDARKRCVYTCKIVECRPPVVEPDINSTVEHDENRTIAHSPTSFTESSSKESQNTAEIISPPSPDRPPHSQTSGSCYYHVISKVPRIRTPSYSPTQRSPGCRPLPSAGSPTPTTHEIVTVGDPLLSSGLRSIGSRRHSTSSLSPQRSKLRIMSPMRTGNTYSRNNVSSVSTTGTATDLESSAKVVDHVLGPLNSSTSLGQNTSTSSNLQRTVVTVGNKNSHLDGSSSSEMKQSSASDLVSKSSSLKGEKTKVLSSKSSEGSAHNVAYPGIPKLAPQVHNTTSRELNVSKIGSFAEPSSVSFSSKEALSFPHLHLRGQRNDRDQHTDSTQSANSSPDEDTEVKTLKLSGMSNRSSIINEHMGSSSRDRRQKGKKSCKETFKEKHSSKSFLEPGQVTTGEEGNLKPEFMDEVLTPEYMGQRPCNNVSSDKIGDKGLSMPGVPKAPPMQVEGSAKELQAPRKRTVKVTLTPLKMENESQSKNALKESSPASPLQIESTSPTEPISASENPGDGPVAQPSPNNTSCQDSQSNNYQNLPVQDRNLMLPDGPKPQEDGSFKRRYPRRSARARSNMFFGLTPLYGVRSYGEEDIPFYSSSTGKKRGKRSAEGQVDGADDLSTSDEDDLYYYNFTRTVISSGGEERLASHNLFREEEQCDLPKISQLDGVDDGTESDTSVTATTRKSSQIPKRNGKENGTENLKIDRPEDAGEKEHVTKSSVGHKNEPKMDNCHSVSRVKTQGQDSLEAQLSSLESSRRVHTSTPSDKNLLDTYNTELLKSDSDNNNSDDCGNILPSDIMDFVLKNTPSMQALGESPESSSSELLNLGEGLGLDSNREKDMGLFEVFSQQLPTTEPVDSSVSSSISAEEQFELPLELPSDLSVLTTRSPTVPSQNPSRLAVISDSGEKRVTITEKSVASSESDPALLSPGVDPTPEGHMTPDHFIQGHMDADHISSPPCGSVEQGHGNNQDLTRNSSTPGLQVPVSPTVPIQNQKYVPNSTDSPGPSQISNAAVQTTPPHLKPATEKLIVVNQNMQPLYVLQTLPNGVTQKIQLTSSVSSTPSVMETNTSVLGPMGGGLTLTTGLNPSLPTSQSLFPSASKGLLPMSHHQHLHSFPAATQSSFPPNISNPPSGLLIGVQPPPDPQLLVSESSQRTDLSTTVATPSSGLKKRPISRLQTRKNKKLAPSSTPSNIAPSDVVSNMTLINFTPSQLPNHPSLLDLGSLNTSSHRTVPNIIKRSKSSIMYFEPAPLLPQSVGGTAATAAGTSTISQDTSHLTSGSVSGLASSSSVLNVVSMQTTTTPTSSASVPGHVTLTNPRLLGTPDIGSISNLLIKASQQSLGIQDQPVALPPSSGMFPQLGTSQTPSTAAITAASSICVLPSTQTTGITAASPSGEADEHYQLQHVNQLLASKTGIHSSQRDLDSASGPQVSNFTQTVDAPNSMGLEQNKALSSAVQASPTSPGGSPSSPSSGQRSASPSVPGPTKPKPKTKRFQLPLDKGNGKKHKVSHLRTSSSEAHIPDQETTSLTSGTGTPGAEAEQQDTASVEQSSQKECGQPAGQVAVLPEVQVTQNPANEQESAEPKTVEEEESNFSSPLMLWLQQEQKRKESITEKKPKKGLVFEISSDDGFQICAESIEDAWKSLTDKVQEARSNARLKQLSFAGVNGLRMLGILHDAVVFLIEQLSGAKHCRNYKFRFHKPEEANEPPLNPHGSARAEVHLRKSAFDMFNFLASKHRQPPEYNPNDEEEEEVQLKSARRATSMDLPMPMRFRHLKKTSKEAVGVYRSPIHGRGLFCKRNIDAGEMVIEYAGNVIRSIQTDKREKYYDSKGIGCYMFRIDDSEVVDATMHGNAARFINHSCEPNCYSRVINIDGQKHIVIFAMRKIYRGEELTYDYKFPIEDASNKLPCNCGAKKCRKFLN

target: Histone-lysine N-methyltransferase 2A (Homo sapiens) (UniProt Q03164); assay: qHTS Fluorescence Polarization Assay for Inhibitors of MLL CXXC domain - DNA interaction; details: MLL-CXXC / FITC-HOXA9 DNA fluorescence polarization; series mostly up to 115 µM
Procedure, shortened: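 Purified MLL-CXXC (added from a 7 uM solution) was preincubated 5 min at ambient with pinned compounds in 50 mM Tris-HCl pH 7.5, 50 mM NaCl, 1 mM DTT, 0.05% BSA. Fluorescein-labeled HOX-A9 DNA (50 nM solution) followed, 30 min, then polarization read.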
Potency is the fitted concentration of half-maximal effect.

Row | SMILES | Potency
1 | CN1CCC(NC(=O)c2cc(-c3cccc(Br)c3)nc3ccccc23)CC1 | inconclusive: 10 µM [quencher, side channel, single point]
2 | CN(C)c1ccc(-c2nnc(-c3cccnc3)o2)cc1 | inconclusive: 8.91 µM [quencher, side channel, single point]
3 | C#CCN(C)CCCOc1ccc(Cl)cc1Cl | inconclusive: 14.1 µM [inhibitor, single point]
4 | CCCCCCc1cc2cc(-c3nnc(-c4ccccc4)o3)c(=O)oc2cc1O | inconclusive: 12.6 µM [fluorescent, side channel, partial curve]
5 | CCOC(=O)/C(C#N)=C/c1ccc(N2CCN(Cc3ccccc3)CC2)cc1 | inconclusive: 63.1 µM [fluorescent, single point]
6 | O=C(/C=C/c1ccco1)Nc1ccccn1 | inconclusive: 63.1 µM [inhibitor, single point]
7 | COc1cccc(CCNc2ccc(N3C(=O)CC(C)C3=O)cc2[N+](=O)[O-])c1 (configuration not stated) | inconclusive: 112 µM [fluorescent, side channel, partial curve, poor fit]
8 | Cc1cc(C(=O)NNC(=S)Nc2ccccc2)nn1C | inactive
9 | COc1ccc(N2C(=O)c3cccc4c(N(C)CCO)ccc(c34)C2=O)cc1 | inconclusive: 31.6 µM [fluorescent, side channel, partial curve]
10 | COc1ccc(-c2cnn3c4c(c(C)nc23)CCN4C2CCCC2)cc1OC | inconclusive: 1.41 µM [quencher, side channel, partial curve, poor fit]
11 | O=C(NCC1CCCO1)C1c2ccccc2C(=O)N1Cc1ccc2c(c1)OCO2 (configuration not stated) | inactive
12 | O=C(Nc1ccccc1)NC1CCN(Cc2ccccc2)CC1 | inconclusive: 1.58 µM [fluorescent, side channel, full curve, poor fit]
13 | O=S(=O)(c1ccc(Cl)c(NC(=S)Nc2cccc(O)c2)c1)N1CCOCC1 | inactive
14 | O=C(Nc1ccccc1)C1C(c2ccccc2)C1(Cl)Cl (configuration not stated) | inactive
15 | CCS(=O)(=O)N1N=C(c2cccc(NS(C)(=O)=O)c2)CC1c1ccc(C)cc1 (configuration not stated) | inconclusive: 28.2 µM [fluorescent, side channel, single point]
16 | COc1cc(CN2CCC(CO)(Cc3cccc(C(F)(F)F)c3)CC2)ccc1F | inactive
17 | COc1ccc(Cn2c3ccc(OC)cc3c3nc4ccccc4nc32)cc1 | inconclusive: 63.1 µM [fluorescent, single point]
18 | O=[N+]([O-])c1ccccc1-c1nc(-c2ccc(Br)o2)no1 | inconclusive: 6.31 µM [fluorescent, side channel, partial curve]
19 | CCc1nccn1C(=O)c1cnn2c(C(F)F)cc(-c3ccc(C)cc3)nc12 | inconclusive: 22.4 µM [quencher, side channel, partial curve]
20 | Oc1ccc(/C=N/Nc2cccc3cccnc23)c(O)c1 | inconclusive: 79.4 µM [quencher, side channel, single point]
21 | CCc1c(C)n2nc(C)cc2[nH]c1=O | inactive

Row | SMILES | Potency
22 | COc1cc(OC)nc(NC(=S)NC(=O)c2ccccc2)n1 | inconclusive: 28.2 µM [fluorescent, side channel, partial curve]
23 | CCOC(=O)C1=C(C)N=c2s/c(=C/c3ccco3)c(=O)n2C1c1cccc(OC)c1 (configuration not stated) | inactive
24 | C/C(CC(=O)Nc1cccc(F)c1)=N\NC(=O)c1ccncc1 | inconclusive: 70.8 µM [fluorescent, side channel, single point]
25 | CCOC(=O)C(C(=O)OCC)C(C)(C)/C(C)=N\Nc1ccc([N+](=O)[O-])cc1[N+](=O)[O-] | inconclusive: 14.1 µM [fluorescent, side channel, single point]
26 | Cc1ccc(-c2cc(C(=O)N3N=C(C(F)F)CC3(O)C(F)F)c3ccccc3n2)cc1C (configuration not stated) | inactive
27 | CCOC(=O)CS(=O)(=O)c1ccc(O)cc1 | inconclusive: 89.1 µM [inhibitor, single point]
28 | CCC(=O)NC1=C(NC(C)c2ccccc2)C(=O)c2ccccc2C1=O (configuration not stated) | inactive
29 | Cc1ccc(Nc2nc(=O)c3cccnc3s2)cc1 | inactive
30 | Fc1ccc(NC(=S)Nc2cccc3ccccc23)cc1F | inconclusive: 8.91 µM [fluorescent, side channel, single point]
31 | N#CC1=C(c2ccccc2)/C(=C/c2ccccc2)OC1=O | inconclusive: 15.8 µM [inhibitor, full curve]
32 | COc1ccccc1NC(=O)COC(=O)c1oc2ccccc2c1C | inconclusive: 14.1 µM [fluorescent, side channel, single point]
33 | CSC1=NS(=O)(=O)c2c(C)nn(C)c2S1 | inconclusive: 25.1 µM [inhibitor, partial curve]
34 | CCOC(=O)CC1NCCc2c1[nH]c1ccc(OC)cc21 (configuration not stated) | inconclusive: 39.8 µM [fluorescent, side channel, partial curve]
35 | O=c1oc(/C=C/c2ccco2)nc2sc3c(c12)CCC3 | inconclusive: 31.6 µM [fluorescent, side channel, partial curve]
36 | CCOCC(=O)Nc1ccc(Br)c(C)c1 | inconclusive: 3.16 µM [inhibitor, full curve, poor fit]
37 | COC(=O)C1SCC2C(=O)N(Cc3ccccc3)CC(=O)N21 (configuration not stated) | inconclusive: 1.12 µM [fluorescent, side channel, full curve]
38 | Cc1ccc(NC(=O)Nc2nnc(-c3ccccc3)o2)cc1 | inconclusive: 31.6 µM [inhibitor, partial curve]
39 | CN(C)N1C(N)=C(C#N)C(c2ccccc2)C2=C1CCCC2=O (configuration not stated) | inconclusive: 12.6 µM [quencher, side channel, partial curve]
40 | CCOc1cc(/C=C/C(=O)c2ccc(OC)c(CN3CCOCC3)c2)cc(Br)c1O | inconclusive: 63.1 µM [fluorescent, side channel, single point]
41 | COc1ccc(S(=O)(=O)NCCC(=O)NC2CCCCCCC2)cc1 | inconclusive: 35.5 µM [quencher, side channel, single point]
42 | Cc1c(C(=O)N2CCNCC2)oc2ccccc12 | inconclusive: 8.91 µM [inhibitor, single point]

Arranged by heavy-atom count (smallest number first): 12 of the compounds above.
Row | SMILES | Potency
33 | CSC1=NS(=O)(=O)c2c(C)nn(C)c2S1 | inconclusive: 25.1 µM [inhibitor, partial curve]
27 | CCOC(=O)CS(=O)(=O)c1ccc(O)cc1 | inconclusive: 89.1 µM [inhibitor, single point]
42 | Cc1c(C(=O)N2CCNCC2)oc2ccccc12 | inconclusive: 8.91 µM [inhibitor, single point]
29 | Cc1ccc(Nc2nc(=O)c3cccnc3s2)cc1 | inactive
35 | O=c1oc(/C=C/c2ccco2)nc2sc3c(c12)CCC3 | inconclusive: 31.6 µM [fluorescent, side channel, partial curve]
34 | CCOC(=O)CC1NCCc2c1[nH]c1ccc(OC)cc21 (configuration not stated) | inconclusive: 39.8 µM [fluorescent, side channel, partial curve]
22 | COc1cc(OC)nc(NC(=S)NC(=O)c2ccccc2)n1 | inconclusive: 28.2 µM [fluorescent, side channel, partial curve]
24 | C/C(CC(=O)Nc1cccc(F)c1)=N\NC(=O)c1ccncc1 | inconclusive: 70.8 µM [fluorescent, side channel, single point]
32 | COc1ccccc1NC(=O)COC(=O)c1oc2ccccc2c1C | inconclusive: 14.1 µM [fluorescent, side channel, single point]
28 | CCC(=O)NC1=C(NC(C)c2ccccc2)C(=O)c2ccccc2C1=O (configuration not stated) | inactive
25 | CCOC(=O)C(C(=O)OCC)C(C)(C)/C(C)=N\Nc1ccc([N+](=O)[O-])cc1[N+](=O)[O-] | inconclusive: 14.1 µM [fluorescent, side channel, single point]
26 | Cc1ccc(-c2cc(C(=O)N3N=C(C(F)F)CC3(O)C(F)F)c3ccccc3n2)cc1C (configuration not stated) | inactive

Three compounds already listed, arranged by molar mass, smallest number first.
Row | SMILES | Potency
29 | Cc1ccc(Nc2nc(=O)c3cccnc3s2)cc1 | inactive
36 | CCOCC(=O)Nc1ccc(Br)c(C)c1 | inconclusive: 3.16 µM [inhibitor, full curve, poor fit]
22 | COc1cc(OC)nc(NC(=S)NC(=O)c2ccccc2)n1 | inconclusive: 28.2 µM [fluorescent, side channel, partial curve]

Remaining list, next part

Row | SMILES | Potency
43 | CCOc1cc(/C=C/c2nc3ccccc3c(=O)[nH]2)ccc1O | inconclusive: 25.1 µM [fluorescent, side channel, partial curve]
44 | N=c1n(CC(=O)c2ccc([N+](=O)[O-])cc2)c2ccccc2n1Cc1ccccc1 | inactive
45 | Cc1[nH]ncc1-c1ccccc1Cl | inconclusive: 3.16 µM [inhibitor, full curve, poor fit]
46 | O=C(NC(=S)NC1CCSC1=O)c1ccccc1 (configuration not stated) | inconclusive: 89.1 µM [fluorescent, side channel, single point]
47 | CCn1c2ccccc2c2c3ncc4cccn4c3ccc21 | inconclusive: 31.6 µM [fluorescent, side channel, partial curve]
48 | COc1cc(C2NCCC(=O)C2(C)C)cc(OC)c1OC (configuration not stated) | inconclusive: 14.1 µM [fluorescent, side channel, single point]
49 | Brc1ccccc1/C=N/Nc1ccc2ccccc2n1 | inconclusive: 22.4 µM [fluorescent, side channel, partial curve]
50 | CN1C=CC(=CC=C2C=CC(=O)C=C2)C=C1 | inconclusive: 10 µM [fluorescent, side channel, single point]
51 | NNC(=O)c1ccc(Cn2cc(Br)c(N)n2)cc1 | inconclusive: 8.91 µM [quencher, side channel, partial curve]
52 | CCN(CC)c1ccc2c(c1)oc(=O)c1c(Cl)cc(=O)oc12 | inconclusive: 39.8 µM [fluorescent, side channel, partial curve]
53 | C=CCOc1cccc(CNc2ccc3[nH]c(=O)[nH]c3c2)c1 | inactive
54 | COC(=O)c1[nH]c2ccc(Br)cc2c1NC(=O)CN1CCN(C2CCCCC2)CC1 | inconclusive: 35.5 µM [quencher, side channel, single point]
55 | COc1ccc(CCNC(=O)c2cc(COc3c(C)cccc3C)on2)c(OC)c1 | inconclusive: 89.1 µM [quencher, side channel, single point]
56 | COc1ccc(Cl)cc1/C=C/c1ccc2cccc(O)c2n1 | inconclusive: 35.5 µM [fluorescent, side channel, partial curve]
57 | CC(C)C[C@@H](CN(C)N=O)N(C[C@H](Cc1ccccc1)N(CCc1ccccc1)N=O)N=O | inconclusive: 70.8 µM [inhibitor, single point]
58 | O=C1/C(=C/c2ccc(O)cc2)SC(=S)N1CC1CCCO1 (configuration not stated) | inconclusive: 20 µM [fluorescent, side channel, partial curve]
59 | COc1cccc(-c2cc(C(=O)Nc3cc(OC)c(OC)c(OC)c3)no2)c1 | inactive
60 | O=C(Oc1cc(=O)oc2c1c(=O)n1c3c(cccc23)CC1)c1ccccc1 | inconclusive: 35.5 µM [quencher, side channel, single point]
61 | CCOC(=O)C(NC(=O)c1ccccc1)(OCc1ccc(F)cc1)C(F)(F)F (configuration not stated) | inconclusive: 63.1 µM [inhibitor, single point]
62 | O=C1C(Cl)=C(Nc2ccc3cn[nH]c3c2)C(=O)c2ccccc21 | inconclusive: 22.4 µM [quencher, side channel, partial curve]
